In PubChem BioAssay AID2685 (National Center for Advancing Translational Sciences (NCATS), 2010):
This is one part of the list. Further columns of the screen follow, without active or inactive calls. Compounds called inactive in the main read-out are mostly missing here. Words in brackets tell the shape of the fitted curve; partial curves, single points and poor fits give uncertain potencies.

Assay: qHTS Assay for Lipid Storage Modulators in Drosophila S3 Cells;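 on cell number change: cells counted by Cell Tracker Red CMTPX staining in the red channel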
Settings: BODIPY lipid droplet fluorescence, 18-24 h; for cell number change: measured here: cell count max response, cells fed with added oleic acid
Method in brief: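 Drosophila S3 cells got compounds at several concentrations plus oleic acid (400 uM solution). Laser-scanning cytometry with 488 nm excitation read lipid droplets at 500-530 nm and cells at 575-640 nm. Percent activity was relative to 20 uM Triacsin C.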

[1] = measured here: lipid fluorescence (Fed channel) AC50, cells fed with added oleic acid
[2] = measured here: cell number channel AC50, cells fed with added oleic acid

## N=C1CCCN1c1ccccc1O
  cell number change: -30.1%

## N/C(Cc1ccc([N+](=O)[O-])cc1)=N\OC(=O)Cc1ccccc1
  cell number change: 27.1%

## COc1ccc(/C(N)=N/OC(=O)Oc2ccccc2)cc1OC
  cell number change: 6.2%
[1]
  AC50: 0.103 µM [falling, full curve, poor fit]

## Cn1nc(C(C)(C)C)cc1NC(=O)Nc1cc(Cl)cc(Cl)c1
  cell number change: -22.2%
[1]
  AC50: 16.4 µM [falling, single point]

## CCC(=O)Nc1cccc(C(=O)OCc2cccc([N+](=O)[O-])c2)c1
[2]
  AC50: 0.103 µM [falling, full curve]
[1]
  AC50: 4.11 µM [falling, partial curve]

## COc1ccc(S(=O)(=O)N(CC(=O)Nc2ccc(S(=O)(=O)N3CCOCC3)cc2)c2ccccc2)cc1
  cell number change: -9.14%
[1]
  AC50: 16.4 µM [falling, single point]

## Cc1sc(/N=C/c2ccccc2O)c(C#N)c1C
  cell number change: 20.1%

## CCCCn1c(SCC(=O)c2cc(OC)ccc2OC)nc2cc(S(N)(=O)=O)ccc21
  cell number change: 61.2%
[2]
  AC50: 7.31 µM [rising, partial curve]
[1]
  AC50: 4.11 µM [rising, single point]

## Cc1cccc(OCCn2c(=S)[nH]c3ccccc32)c1
  cell number change: -53%
[2]
  AC50: 18.4 µM [falling, single point]
[1]
  AC50: 23.1 µM [falling, partial curve, poor fit]

## O=C(Oc1ccc2c(c1)O/C(=C\c1ccncc1)C2=O)c1ccccc1
  cell number change: -20.2%
[1]
  AC50: 2.06 µM [falling, partial curve]

## CCOc1ccc(CN2CCNC(=O)C2CC(=O)NCCc2cnccn2)cc1 (stereo not given)
  cell number change: 8.25%

## CC(C)=NOCC(=O)Nn1c(COc2ccccc2)nc2ccccc2c1=O
  cell number change: -8.73%

## Cc1cnc(C(=O)OCC(=O)NCc2cccc(Cl)c2)cn1
  cell number change: -7.71%
[2]
  AC50: 6.51 µM [falling, single point]

## CCOC(=O)CN1C(=O)C(C)(C)Oc2ccc(C(=O)Nc3ccccc3OC)cc21
  cell number change: 36.1%
[2]
  AC50: 0.184 µM [rising, full curve]
[1]
  AC50: 0.13 µM [rising, full curve]

## Cn1cccc1C(=O)OCc1ccc(C(C)(C)C)cc1
  cell number change: -3.95%
[1]
  AC50: 5.62 µM [falling, single point]

## COc1ccc(CN2CCN(C)CC2)cc1OCc1ccccc1
[1]
  AC50: 20.6 µM [falling, partial curve]

## CCCOc1ccc2c3c(c(=O)oc2c1OCCC)CCC3
  cell number change: -12.1%
[1]
  AC50: 1.64 µM [rising, partial curve]

## COC(=O)CCC(=O)OC1(C)C(=O)C2=CN(C3CCCC3)C(c3ccc(OC)cc3)=CC2=C(Br)C1=O (stereo not given)
  cell number change: -50.7%
[2]
  AC50: 16.4 µM [falling, single point]
[1]
  AC50: 23.1 µM [falling, single point]

## O=C(NC1CCCc2ccccc21)c1cc(S(=O)(=O)N2CCOCC2)ccc1F (stereo not given)
  cell number change: 43.2%
[2]
  AC50: 13 µM [rising, single point]

## N#Cc1cccc(NC(=O)CCNC(=O)c2ccccc2Cl)c1
  cell number change: 2.78%

## C/C(=N\Nc1cc(C)nc(-c2ccccc2)n1)c1cccc([N+](=O)[O-])c1
  cell number change: -15.6%

## CC(C)Nc1nc(NC(N)=S)nc(NC(C)C)n1
  cell number change: 11.5%

## COc1ccc(S(=O)(=O)Oc2cc(C(=S)N3CCOCC3)ccc2OC)cc1
  cell number change: -10.2%

## CN(CC(=O)Nc1ccc(Cl)cc1)C(=O)c1ccc(COc2ccccc2)cc1
  cell number change: -42%
[2]
  AC50: 20.6 µM [falling, partial curve, poor fit]
[1]
  AC50: 23.1 µM [falling, partial curve, poor fit]

## O=C(COc1ccc2c3c(c(=O)oc2c1)CCCC3)N1CCN(c2ccc(F)cc2)CC1
  cell number change: -7.31%
[1]
  AC50: 29.1 µM [falling, single point]

## COC(=O)c1ccccc1NC(=O)CSc1n[nH]c(CC(C)C)n1
  cell number change: 7%
[1]
  AC50: 6.51 µM [rising, partial curve]

## O=C(O)C(Oc1ccc2c(-c3ccccc3)cc(=O)oc2c1)c1ccccc1 (stereo not given)
  cell number change: 16%
[1]
  AC50: 10.3 µM [rising, partial curve, poor fit]

## CC(C)C(NS(=O)(=O)c1ccc2c(c1)oc(=O)n2C)C(=O)N1CCN(c2ccccc2F)CC1 (stereo not given)
  cell number change: -4.62%
[1]
  AC50: 32.6 µM [rising, single point]

## CCOc1ccc(C(C#N)N2CCOCC2)cc1OC (stereo not given)
  cell number change: 6%

## Cc1cc(C)c(S(=O)(=O)Cc2ccccc2)c(Cl)n1
  cell number change: 2.82%
[1]
  AC50: 3.26 µM [rising, single point]

## COc1ccccc1/C=N/NC(=O)c1ccc(CN2C(=O)c3cccc4cccc2c34)cc1
  cell number change: 11.3%
[1]
  AC50: 4.61 µM [rising, single point]

## C=C(C)CN1CCN(c2ccc(N3C(=O)CCCC3=O)cc2[N+](=O)[O-])CC1
[2]
  AC50: 6.51 µM [falling, single point]

## Cc1nc2c([N+](=O)[O-])c(C)c(C)cc2[nH]1
  cell number change: -48.6%
[2]
  AC50: 25.9 µM [falling, single point]
[1]
  AC50: 29.1 µM [falling, single point]

## O=C(NCCCN1CCOCC1)c1ccc(/C=C2\Oc3ccccc3N(Cc3ccccc3F)C2=O)cc1
[1]
  AC50: 3.26 µM [rising, partial curve]

## CCCCNC(=O)NS(=O)(=O)c1ccc(NC(=O)CCC(=O)c2cccs2)cc1
  cell number change: 23.7%
[1]
  AC50: 0.58 µM [rising, single point]

## O=C(O)C1(NS(=O)(=O)c2ccc(Cl)cc2)CCCCC1
  cell number change: -32%
[2]
  AC50: 16.4 µM [falling, partial curve, poor fit]

## CCCN(Cc1ccc(N(CC)CC)cc1)CC1CC1
  cell number change: 17.7%
[1]
  AC50: 7.31 µM [rising, partial curve]

## CNC(=O)c1cc2ccc(OC)cc2oc1=O
[2]
  AC50: 6.51 µM [falling, single point]

## O=C(c1cccc(-c2nnc(-c3ccccc3)o2)c1)N1CCCCCC1
  cell number change: 12.3%
[2]
  AC50: 0.058 µM [rising, full curve, poor fit]

## CCN(CC)/C(=N/O)NC(=O)NS(=O)(=O)c1ccc(C)cc1
  cell number change: 1.28%
[1]
  AC50: 7.31 µM [falling, partial curve, poor fit]

## CCCN(C(=O)c1ccc2c(SCC(=O)O)c3c(nc2c1)CCC3)c1cccc(C)c1
  cell number change: 13.9%
[1]
  AC50: 0.58 µM [falling, partial curve]

## O=C(NC1CCCCC1)C(c1ccncc1)N(C(=O)c1csnn1)c1ccccc1 (stereo not given)
  cell number change: 5.46%

## Cc1cccc(C)c1NC(=O)CN(C)C(=O)[C@H](C)NC(=O)c1ccco1
  cell number change: -23.4%
[2]
  AC50: 2.06 µM [falling, partial curve]
[1]
  AC50: 4.11 µM [rising, full curve, poor fit]

## CCc1nc(SCC(=O)Nc2ccccc2C(=O)OC)n[nH]1
  cell number change: 8.4%
[1]
  AC50: 5.8 µM [rising, single point]

## CCOC(=O)c1[nH]c2ccc(F)cc2c1NC(=O)C1=COCCO1
  cell number change: 18.2%
[1]
  AC50: 20.6 µM [rising, partial curve]

## CC[N+](C)(CC)CCC(c1ccccc1)C1CCCCC1 (stereo not given)
  cell number change: 17.9%

## Cc1ccc(NC(=O)NCC(c2ccccc2)N(C)C)cc1 (stereo not given)
  cell number change: 17.3%
[1]
  AC50: 7.31 µM [rising, partial curve]

## Nc1nonc1OCCOCCOCCOc1nonc1N
  cell number change: 5.96%
[2]
  AC50: 0.58 µM [falling, single point]

## CCC(=O)N1CCN(c2ccccc2NC(=O)COc2cccc(C)c2C)CC1
  cell number change: -29.5%
[1]
  AC50: 29.1 µM [falling, single point]

## O=C(c1ccco1)N1CCN(C(=O)c2nn3cccnc3c2Cl)CC1
  cell number change: 15.1%
[1]
  AC50: 20.6 µM [rising, single point]

## Cc1onc(-c2ccccc2Cl)c1C(=O)N(C)CC(=O)Nc1ccc(F)c(F)c1F
[1]
  AC50: 6.51 µM [falling, partial curve, poor fit]

## Cc1cccc(C)c1Nc1nnc(SC/C(O)=C(\C#N)c2nc3ccccc3[nH]2)s1
  cell number change: 29.3%
[1]
  AC50: 2.59 µM [rising, full curve]

## CCO[C@@H]1OC(C(=O)O)=C[C@H](c2csc3ccccc23)[C@H]1CCCO
  cell number change: 2.65%
[1]
  AC50: 0.58 µM [falling, single point]

## Cc1c(/C(O)=C2/C(=O)C(=O)N(CCN3CCOCC3)C2c2cccs2)cnn1-c1ccccc1 (stereo not given)
  cell number change: 68.8%
[2]
  AC50: 23.1 µM [rising, single point]
[1]
  AC50: 29.1 µM [rising, single point]

## COC(=O)CCC(=O)NC(=S)Nc1cc(Cl)ccc1Cl
  cell number change: -8.23%

## O=C(CSc1nc2[nH]c(=O)[nH]c(=O)c2s1)Nc1cccc(F)c1
  cell number change: 13.4%
[1]
  AC50: 3.26 µM [rising, single point]

## O=C(NCCN1CCOCC1)/C(=C/c1ccccc1)NC(=O)c1ccccc1
  cell number change: 6.58%
[2]
  AC50: 0.82 µM [falling, full curve, poor fit]

## O=C(C1CCCN(Cc2ccccc2F)C1)N1CCCCC1 (stereo not given)
  cell number change: -23.7%
[1]
  AC50: 0.82 µM [falling, full curve]

## COc1cccc(-c2cc(C(=O)N3CCc4ccccc4C3)[nH]n2)c1
  cell number change: -8.66%

## CCN1C(=O)C2(SC(NC(C)=O)=NN2C(C)=O)c2cc(C)cc(C)c21 (stereo not given)
  cell number change: 2.67%
[2]
  AC50: 0.731 µM [rising, partial curve, poor fit]

## c1cn(-c2ccc(-c3ccnc4ncnn34)cc2)cn1
[2]
  AC50: 1.03 µM [rising, full curve, poor fit]

## Cc1cccc(C(C)(C)C)c1OCCn1ccnc1
[2]
  AC50: 2.59 µM [rising, partial curve]
[1]
  AC50: 0.58 µM [rising, single point]

## O=C(Nc1cccs1)N1CCN(c2ncccn2)CC1
  cell number change: 16.7%

## Cc1ccc(NC(=O)COC(=O)c2csc3c2CCC(C)C3)cc1S(=O)(=O)N1CCCCC1 (stereo not given)
  cell number change: 28.9%
[1]
  AC50: 18.4 µM [rising, single point]
